In this test the target is T1, Schizosaccharomyces pombe Ubc7 (S. pombe) (UniProt O00102).
T1 sequence: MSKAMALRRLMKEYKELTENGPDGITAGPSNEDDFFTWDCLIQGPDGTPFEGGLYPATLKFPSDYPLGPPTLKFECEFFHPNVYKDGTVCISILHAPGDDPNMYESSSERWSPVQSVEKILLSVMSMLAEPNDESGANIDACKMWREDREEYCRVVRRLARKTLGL
Kind of test: crystal structure; Ubc7 and U7BR mixed at 16 µM each, complex isolated by size-exclusion chromatography; hanging drop, 6.6 mg/ml complex, 100 mM Tris pH 8.0, 200 mM MgCl2, 30% PEG 4000, 18°C; 1.7 Å, one complex in the asymmetric unit; both purified. Background: Size exclusion chromatography separates by hydrodynamic size, large species first.

Results are given in words; binding and its absence hold for the method and conditions named. Binding can be weak; no strength is given. Where a sequence is shown, tags or fusion partners need not be part of it.

The record followed here is publication PMC6688661.

“Schizosaccharomyces pombe Cue4 Ubc7-binding region (U7BR), residues 152-215 (S. pombe) (domain or fragment)”: the binding result was “binds”.
